Assay results published in PubChem BioAssay AID1259354 (Paczesny and Yang Labs, IUPUI and University of Michigan, 2018).
Out of some 78,000 compounds screened, about 1,800 (2.3%) were called active. Inconclusive means that the source gave no clear call. Such entries were picked first, then a sample of the others. Rule as the data show it: active = inhibition above about 30%; inconclusive = mostly about 10% to 28%; inactive = weaker than that.

Protein sequences, listed by entry. Tags and fused reporters are not part of them. Lines headed by an entry give the natural chain unless they say otherwise; changes in a name come on top.
UniProt Q01638: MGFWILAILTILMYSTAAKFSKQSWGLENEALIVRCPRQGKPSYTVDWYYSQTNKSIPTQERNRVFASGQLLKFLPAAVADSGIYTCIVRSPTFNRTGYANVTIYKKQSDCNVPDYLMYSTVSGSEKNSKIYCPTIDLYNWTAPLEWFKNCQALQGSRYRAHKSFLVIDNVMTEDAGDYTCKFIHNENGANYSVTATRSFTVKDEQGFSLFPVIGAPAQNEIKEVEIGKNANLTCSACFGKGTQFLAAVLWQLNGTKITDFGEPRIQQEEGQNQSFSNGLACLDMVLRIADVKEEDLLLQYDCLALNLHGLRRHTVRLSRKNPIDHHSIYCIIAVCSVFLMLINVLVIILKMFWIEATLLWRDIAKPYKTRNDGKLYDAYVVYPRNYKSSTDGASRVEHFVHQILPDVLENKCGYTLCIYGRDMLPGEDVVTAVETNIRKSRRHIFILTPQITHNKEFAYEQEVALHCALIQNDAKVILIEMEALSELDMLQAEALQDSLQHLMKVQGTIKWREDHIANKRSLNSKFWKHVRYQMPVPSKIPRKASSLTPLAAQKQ

target: Interleukin-1 receptor-like 1 (Homo sapiens) (UniProt Q01638); assay: blocks human ST2 binding to IL-33, primary screen, biochemical, AlphaLISA (AID 1259354); details: AlphaLISA ST2-Fc/biotin-IL-33 interaction, 1 h; at 17 µM, stronger effect = higher value

| Compound | inhibition |
| --- | --- |
| Cc1ccsc1S(=O)(=O)N1CCOC2(CNCCOC2)C1 (configuration not stated) | inconclusive: 16% |
| COc1ccc(-c2cc(-c3ccccc3)nc(=O)[nH]2)cc1 | inactive |
| CCOc1ccc(NC(=O)c2ccc(=O)n(Cc3ccc(F)cc3)c2)cc1 | inconclusive: 13% |
| O=C(CN1N=NC2C(=O)N(c3ccccc3)C(=O)C21)Nc1c(Cl)cccc1Cl (configuration not stated) | inactive |
| CCS[C@H]1CCN2C(=O)c3cc(-c4ccc(OC)cc4)ccc3NC(=O)[C@H]12 | inconclusive: 18% |
| COc1ccc(-c2cc(C[C@H]3CNCC[C@H]3CC(=O)NCCN3CCOCC3)no2)cc1 | inconclusive: 12% |
| Cc1[nH]c2c(C)cccc2c(=O)c1CN1CCC(C)CC1 | inactive |
| CN1CCC2(CC1)CN(Cc1ccc(OCc3ccccc3)cc1O)CCN2C | inactive |
| O=C(NC[C@H]1O[C@@H](CO)[C@@H](O)[C@H]1N1CCc2ccccc2C1)Nc1ccccc1 | inactive |
| N#Cc1cccc(CN2C[C@@H]3C[C@H](C2)c2ccc(-c4ccccc4CN4CCOCC4)c(=O)n2C3)c1 | inconclusive: 12% |
| COc1ccccc1-n1c(SCC(=O)Nc2cc(C)ccc2C)nc2c(c1=O)SCC2 | inconclusive: 20% |
| CCCOc1ccc(-c2nc3s/c(=C\c4cc(OC)ccc4OC)c(=O)n3n2)cc1 | inactive |
| Clc1nc(N2CCCCC2)nc(-n2ccnc2)n1 | inconclusive: 24% |
| O=C1Nc2ccc(Br)cc2C(=O)N2CCN(C(=O)c3cccc(F)c3)C[C@H]12 | active: 37% |
| CCOc1ccc2c(c1)sc(=NC(=O)c1cccc(N3C(=O)CCC3=O)c1)n2C | inactive |
| O=C1Nc2c([N+](=O)[O-])cc([N+](=O)[O-])cc2S(=O)(=O)C1c1ccccc1 (configuration not stated) | inconclusive: 23% |
| Cn1nc(C(=O)NCc2cccnc2)c2c1CCN(Cc1ccc3c(c1)Cc1ccccc1-3)C2 | inconclusive: 16% |
| O=C(Nc1cccc2nsnc12)c1ccccc1[N+](=O)[O-] | inconclusive: 22% |
| CCOC(=O)N1CCN(C2CCCN(C(=O)c3cc(=O)n(C)c(=O)n3C)C2)CC1 (configuration not stated) | inactive |
| Cc1cnccc1CN(C)C(=O)c1ccnc(N)c1 | inconclusive: 18% |
| O=[N+]([O-])c1cccc(C=Nc2ccc(F)cc2)c1O | inactive |
| Cc1nc(C)n(CC(=O)N2CCc3c([nH]c4ccccc34)C2C2CCCCC2)n1 (configuration not stated) | inconclusive: 13% |
| Cc1cccc(-c2ccc3c(c2)C(=O)N2CC[C@H](NC(=O)CCC(=O)O)[C@H]2C(=O)N3)c1C | inconclusive: 14% |

| Compound | inhibition |
| --- | --- |
| Cn1c(=O)c2c(nc(NCCCO)n2Cc2ccccc2Cl)n(C)c1=O | inconclusive: 20% |
| CCc1ocnc1C(=O)N1CCOc2c(O)cc(-c3cccc(Cl)c3)cc2C1 | inactive |
| CC(Cn1cncn1)NCCN1CCc2ccccc2C1 (configuration not stated) | inconclusive: 15% |
| COc1ccccc1CC(=O)Nc1cnn(CC(=O)N2CCC(c3cccc(OC)c3OC)C2)c1 (configuration not stated) | inactive |
| O=C(C[C@@H]1CCNC[C@@H]1Cc1cc(-c2ccccc2)on1)Nc1cccc(O)c1 | inactive |
| COc1ccc(-n2nc3ccc(NC(=O)c4cc(Br)ccc4OC)cc3n2)cc1 | inconclusive: 20% |
| CCOCCCNC(=O)CN1C(=O)/C(=C/c2ccccc2C)Sc2ccccc21 | inconclusive: 10% |
| Cc1nc(CN2CCN(Cc3nc(-c4ccccn4)no3)CC2)cs1 | inactive |
| COc1ccc(C)cc1NC(=O)CNC(=O)c1cn(-c2ccccc2OC)c(=O)c2ccccc12 | inactive |
| CCN(C(=O)c1cc2cc3ccc(OC)cc3nc2o1)c1cccc(C(F)(F)F)c1 | inconclusive: 27% |
| CC(C)c1cc(C2CCN(C(=O)c3ccccc3-c3ncc[nH]3)CC2)[nH]n1 | inconclusive: 19% |
| COc1ccc(C2CC(c3ccc(Br)cc3)=NN2S(=O)(=O)c2ccccc2)cc1 (configuration not stated) | active: 34% |
| CN(C)c1cccc(Oc2nnnn2[C@H]2CO[C@H]3[C@@H]2OC[C@@H]3NC(=O)CC2(CC(=O)O)CCCC2)c1 | inconclusive: 23% |
| CCC(C)NC(=O)C(=O)Nc1ccccc1OC (configuration not stated) | inactive |
| Cc1cc(CNC(=O)COc2cccnc2)c2[nH]c(C)c(C)c2c1 | inconclusive: 13% |
| COc1ccc2nc3oc(C(=O)Nc4ccc(OC)c(Cl)c4)cc3cc2c1 | active: 37% |
| COc1ccc(I)c(OC)c1 | inactive |
| c1ccc(OCc2cn([C@H]3CO[C@H]4[C@@H]3OC[C@@H]4NCc3ccc(-c4ccccc4)cc3)nn2)cc1 | inconclusive: 19% |
| C[C@H]1[C@@H]2[C@@H](O)[C@H]([C@H](C)C(=O)N3CCCCC3)CC[C@@]2(C)CC[C@@H]1NC(=O)c1cnccn1 | inconclusive: 14% |
| CCCOc1ccc(C2Oc3ccc(Br)cc3C=C2[N+](=O)[O-])cc1OC (configuration not stated) | active: 44% |
| O=C(Nc1cccc(Br)c1)c1ccccc1[N+](=O)[O-] | inconclusive: 16% |
| O=C(NC1CC(=O)N(c2cccc(F)c2)C1)c1ccc2c(c1)OCO2 (configuration not stated) | inconclusive: 20% |
| COc1ccc2c(=O)c(-c3ccccc3C)c(C)oc2c1C | inactive |

| Compound | inhibition |
| --- | --- |
| Cc1ccc2nc(CN3C(=O)c4ccccc4C3=O)cn2c1 | inconclusive: 11% |
| COc1ccc(-c2noc(CN(C)CC3CCN(CC(C)C)C3)n2)c(OC)c1OC (configuration not stated) | inconclusive: 12% |
| CSc1nnc(Sc2c([N+](=O)[O-])nc(C)n2Cc2ccccc2)s1 | inconclusive: 18% |
| CCN(CC)S(=O)(=O)c1ccc(C(=O)N2CCN=C2SCc2ccc(Cl)cc2)cc1 | inactive |
| COCCN(Cc1ccc(C)cc1)Cc1cccc(O)c1 | inconclusive: 12% |
| Cc1ccccc1NC(=O)CC1SC(=Nc2ccccc2)NC1=O (configuration not stated) | inconclusive: 15% |
| COc1ccc(NC(=O)CC2CCCCC2)c([N+](=O)[O-])c1 | active: 40% |
| CCCCCOc1ccc(/C=c2\sc3nc(-c4ccncc4)nn3c2=O)cc1OC | inconclusive: 13% |
| COc1ccc(NC(=O)c2c(NC(=O)c3ccco3)sc3c2CCC3)cc1Cl | inactive |
| CCOCCCNCc1ccc(OCC)c(OC)c1 | inactive |
| CSc1nc2ccc(NC(=O)c3cc(=O)c4ccccc4o3)cc2s1 | inactive |
| Cc1ccc(C(=O)COc2ccc3c(C)cc(=O)oc3c2C)cc1 | inconclusive: 10% |
| Cc1cccc(-c2noc([C@@H]3C[C@@H](O)CN3Cc3ccc([N+](=O)[O-])cc3)n2)c1 | inactive |
| Cc1ccc(NS(=O)(=O)c2ccc3[nH]c(=O)sc3c2)cc1F | inactive |
| Cc1cc(C)c(N2CCC(=O)N2)c(C)c1 | active: 33% |
| COc1ccc(C2C3=C(CC(C)(C)CC3=O)NC3=C2C(=O)c2ccccc23)cc1OC (configuration not stated) | inconclusive: 23% |
| CCCN(CCC)S(=O)(=O)c1ccc2c(c1)CCN2C(=O)C1CC1 | inactive |
| O=S(=O)(NCc1ccccc1)N1CCCC1c1ccccn1 (configuration not stated) | inconclusive: 22% |
| CN(C)C(=O)c1cncc(N2CCC(N3CCCC(C(=O)N4CCCC4)C3)CC2)n1 (configuration not stated) | inactive |
| CNC(=O)[C@@H]1C[C@H](N)CN1Cc1cc(OC)c(OC)cc1F | inconclusive: 11% |
| CCOc1ccccc1NC(=O)CCC(=O)Nc1ccc2nc(N3CCN(C)CC3)cc(C)c2c1 | inconclusive: 13% |
| CCOC(=O)CCNC(=O)N1CCC(Cc2nncn2C)CC1 | inconclusive: 12% |
| COc1ccccc1S(=O)(=O)Cc1ccc(C(=O)NC2CCCC(C)C2C)o1 (configuration not stated) | inconclusive: 12% |

| Compound | inhibition |
| --- | --- |
| CNC(=O)c1cccnc1N1CCC(N2CCCC(C(=O)N3CCCC3)C2)CC1 (configuration not stated) | active: 33% |
| Cc1ncccc1Oc1ncnc(N2CCCC3(CC2)CN(C)C(=O)O3)c1C (configuration not stated) | inconclusive: 17% |
| Cc1cccnc1CC(C)NC(=O)c1ccc(NC(=O)c2ccoc2C)cc1 (configuration not stated) | inconclusive: 14% |
| O=C(NCCc1nc(-c2ccccn2)no1)c1ccc2ncsc2c1 | inactive |
| CCc1cnc(N2CC[C@@H](c3ccc4ccccc4c3)[C@H](O)C2)nc1 | inactive |
| CCSc1nc2c(c(=O)[nH]1)C(c1ccc(N(C)C)cc1)C1=C(CCCC1=O)N2 (configuration not stated) | inactive |
| Brc1c(CSc2nncn2-c2ccccc2)nc2ncccn12 | inconclusive: 11% |
| COc1ccc(-n2c(C)nc3c(cnn3-c3ccc(C)cc3)c2=O)cc1Cl | inconclusive: 19% |
| CCOc1ccc(N(CC(=O)O)S(=O)(=O)c2ccc(C)cc2)cc1 | inactive |
| CN(Cc1ccsc1)C(=O)Cc1nc(-c2ccccc2)n[nH]1 | inconclusive: 11% |
| O=C(NCCC1=CCCCC1)C1CC12CCN(Cc1cc3ccccc3s1)CC2 (configuration not stated) | inconclusive: 17% |
| Cc1ccc2c(c1)CN(C(=O)c1ccc(Cn3nc(C)cc3C)cc1)CC(C)O2 (configuration not stated) | inconclusive: 10% |
| C=CCN1C(=O)c2ccccc2Sc2ccc(C(=O)N3CCCC3)cc21 | inconclusive: 10% |
| Cc1nc(N=Nc2cc(S(=O)(=O)O)c3cc([N+](=O)[O-])cc(S(=O)(=O)O)c3c2)c(COP(=O)(O)O)c(C=O)c1O | inconclusive: 13% |
| O=C1NC(=Nc2ccccc2)SC1Cc1ccc(Cl)cc1 (configuration not stated) | inconclusive: 21% |
| O=C(O)c1ccccc1C1CCN(C(=O)c2ccccc2-c2ncn[nH]2)C1 (configuration not stated) | inactive |
| [CH2-][N+](C)(C)COP(=O)(O)OP(=O)(O)OC[C@H]1O[C@@H](n2ccc(N)nc2=O)[C@H](O)[C@@H]1O | inactive |
| CCCCC(CC)CNC(=O)CN1C(=O)c2ccccc2C1=O (configuration not stated) | inactive |
| Cc1nc2sccn2c1-c1c(-c2ccccc2)ncn1CCC1CCCN1C (configuration not stated) | inactive |
| CC(=O)NC(=O)c1cc2cc(Cl)cc(Cl)c2oc1=Nc1ccc(F)cc1 | inconclusive: 15% |
| CCCCC(=O)Nc1ccc(NC(=O)c2ccccc2I)cc1OC | inactive |
| COc1ccc(-c2nc(C#N)c(N3CCOCC3)o2)cc1 | inactive |
| N#Cc1ccc(-c2csc(NC(=O)c3ccc(N4C(=O)CCC4=O)cc3)n2)cc1 | inconclusive: 15% |

Pulled one by one from the list above (5):

| Compound | inhibition |
| --- | --- |
| CCOc1ccc(N(CC(=O)O)S(=O)(=O)c2ccc(C)cc2)cc1 | inactive |
| Cc1ncccc1Oc1ncnc(N2CCCC3(CC2)CN(C)C(=O)O3)c1C (configuration not stated) | inconclusive: 17% |
| Cc1nc(N=Nc2cc(S(=O)(=O)O)c3cc([N+](=O)[O-])cc(S(=O)(=O)O)c3c2)c(COP(=O)(O)O)c(C=O)c1O | inconclusive: 13% |
| CC(=O)NC(=O)c1cc2cc(Cl)cc(Cl)c2oc1=Nc1ccc(F)cc1 | inconclusive: 15% |
| C=CCN1C(=O)c2ccccc2Sc2ccc(C(=O)N3CCCC3)cc21 | inconclusive: 10% |
